Consider 27 molecules from PubChem BioAssay AID276 (DTP/NCI, 2004).

In this test the test system is B6C3F1 mice, Lewis lung carcinoma iv, survival T/C. As to the kind of experiment: NCI In Vivo Anticancer Drug Screen. Data for tumor model Lewis Lung Carcinoma (intravenous) in B6C3F1 mice. The settings on record: T/C endpoint: median survival time, schedule: Q01DX009 (ip), higher T/C = longer survival. The procedure, abridged:
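T/C ratio derived from survival of compound-treated versus vehicle-treated mice bearing transplantable tumors.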

[1] abbreviates: dose: 40.0 mg/kg/injection, vehicle: Klucel (hydroxypropylcellulose) (HPC).
[2] abbreviates: dose: 80.0 mg/kg/injection, vehicle: Klucel (hydroxypropylcellulose) (HPC).
Where [3] appears, read: dose: 8.0 mg/kg/injection, vehicle: saline.
The mark [4] stands for this setting: dose: 12.5 mg/kg/injection, vehicle: saline with Tween-80.
Setting [5] is: dose: 25.0 mg/kg/injection, vehicle: saline with Tween-80.
Setting [6] is: dose: 50.0 mg/kg/injection, vehicle: saline with Tween-80.
[7] abbreviates: dose: 100.0 mg/kg/injection, vehicle: saline with Tween-80.
Where [8] appears, read: dose: 400.0 mg/kg/injection, vehicle: suspension in saline.
Setting [9] is: dose: 25.0 mg/kg/injection, vehicle: water.
The mark [10] stands for this setting: dose: 50.0 mg/kg/injection, vehicle: water.

Each structure is given as a SMILES string. The list does not hold the whole screen: it gathers tests that were run many times, whatever their T/C, doses with no T/C, and many T/C values between a quarter and a half above the control. Other doses and runs of a compound stand elsewhere. T/C gives the treated animals as a percentage of the vehicle group. Some doses have a count of surviving animals in place of a T/C: the source files T/C as zero there, which appears to mark a toxic dose or a test without result, not a measured value. Some survivor counts are full or nearly so, which does not show that the dose was tolerated: the source hardly ever lists a survival T/C far under the control, and the zero likely stands for such cases as well. Survivors were counted at the toxicity check, usually on the fifth day, unless a day is given; later deaths do not show. Schedules are NCI's codes, taken here to give the interval after Q, in days (D) or hours (H), and the number of doses after X. Some entries hold several experiments; their values stand side by side, smallest first. For survival time, this PubChem deposit counts one and a half times the control or more as active, and values a quarter to a half above the control carry no call in these data; other NCI protocols may use other cut-offs.

Take `CO[C@H](/C(C)=C/C=C/C(C)=C/c1coc(C)n1)[C@H](C)[C@H]1C[C@@H](O)[C@@]2(C)O[C@H]2/C=C/[C@@H](C)[C@@H]2C[C@@H](CC(=O)O2)C[C@H]2O[C@@H]2C(=O)O1`: the survivor count (dose: 160.0 micrograms/kg/injection, vehicle: Klucel (hydroxypropylcellulose) (HPC)) was 10 of 10.
In the case of `CN(C)N=Nc1cccc(C(N)=O)c1`, the T/C by setting is: (dose: 20.0 mg/kg/injection, vehicle: Klucel (hydroxypropylcellulose) (HPC)) 140 % of control; under setting [1], 125 and 142 % of control. Also, the survivor count under setting [2] is 10 of 10 and the survivor count (dose: 160.0 mg/kg/injection, vehicle: Klucel (hydroxypropylcellulose) (HPC)) is reported as 8 of 10.
In the case of `CN(C)c1nc(N(C)C)nc(N(C)C)n1`, the survivor count (dose: 400.0 mg/kg/injection, vehicle: saline with Tween-80) is given as 0 of 10.
As to `CCCCCCCCCCCCCCCCCCOCC(COP(=O)([O-])OCC[N+](C)(C)C)OC` (centres undefined), the survivor count is 10 of 10 (dose: 50.0 mg/kg/injection, vehicle: suspension in saline) and 0 of 10 (dose: 100.0 mg/kg/injection, vehicle: suspension in saline).
As for `COc1cccc2c1C(=N)c1c(O)c3c(c(O)c1C2=O)C[C@@](O)(C(C)=O)C[C@@H]3OC1CC(N)C(O)C(C)O1` (some centres undefined), the survivor count by setting is: under setting [3], 10 of 10; (dose: 16.0 mg/kg/injection, vehicle: saline) 10 of 10.
As for `C=C(C)[C@@H]1CCc2c(O)c(O)c(=O)cc(C)c2C1`, for the setting “dose: 12.5 mg/kg/injection, vehicle: Klucel (hydroxypropylcellulose) (HPC)”, the survivor count is given as 8 of 10.
On to `ClC1=C(Cl)C(Cl)=C(Cl)C1=Cc1ccccc1`, for which the survivor count under setting [4] is 6 of 10; the survivor count under setting [5] is reported as 1 of 10; the survivor count under setting [6] is 0 of 10; the survivor count under setting [7] was 0 of 10 and 9 of 10.
For `CC[C@@]1(O)C(=O)OCc2c1cc1n(c2=O)Cc2cc3ccccc3nc2-1`, the T/C (dose: 3.0 mg/kg/injection, vehicle: saline with Tween-80) was 132 % of control.
For the molecule `Cc1cc2nc3c(=O)[nH]c(=O)nc-3n(CC(O)C(O)C(O)C(O)CO)c2cc1C` (centres undefined), the survivor count is, setting by setting: under setting [8], 8 of 10; (dose: 800.0 mg/kg/injection, vehicle: suspension in saline) 5 of 10.
For the molecule `CN(CCN(C)C(=O)CCOS(C)(=O)=O)C(=O)CCOS(C)(=O)=O`, the survivor count runs as follows: (dose: 200.0 mg/kg/injection, vehicle: suspension in saline) 10 of 10; under setting [8], 9 of 10.
With `COc1cc2c(c(OC)c1OC)-c1ccc(OC)c(=O)cc1[C@@H](NC(=O)CCl)CC2`, where the note is “dose: 0.5 mg/kg/injection, vehicle: saline with Tween-80”, the T/C was 129 % of control. Besides, the survivor count (dose: 1.0 mg/kg/injection, vehicle: saline with Tween-80) was 6 of 10.
On to `Cc1cc2c(C(C)C)c(O)c(O)c(C=O)c2c(O)c1-c1c(C)cc2c(C(C)C)c(O)c(O)c(C=O)c2c1O`, for which the survivor count is on record as 10 of 10 (dose: 6.0 mg/kg/injection, vehicle: saline with Tween-80); 10 of 10 (dose: 6.25 mg/kg/injection, vehicle: saline with Tween-80); 6 of 10 under setting [4]; 1 of 10 under setting [5]; 0 of 10 under setting [6]; 0 of 10 under setting [7].
Consider `OC1(CSc2ccccc2)CCCCC1`, for which the T/C under setting [5] was 130 % of control.
With `C1CC[N-]CC1.[Cl][Pt+2][Cl].[NH-]C1CC1`, the survivor count by setting is: (dose: 3.12 mg/kg/injection, vehicle: water) 10 of 10; under setting [9], 10 of 10; under setting [10], 7 of 10; (dose: 100.0 mg/kg/injection, vehicle: water) 0 of 10.
`O=C(CCCN1CCC(C(O)c2ccc(F)cc2)CC1)c1ccc(F)cc1` (centres undefined): the survivor count was 10 of 10 under setting [5] and 8 of 10 under setting [6].
On to `Cc1cc(NS(=O)(=O)c2ccc(N=Nc3cc(N=Nc4ccc(S(=O)(=O)Nc5cc(C)nc(C)n5)cc4)c4c(NC(=O)C(Cl)Cl)cccc4c3OC(=O)C(Cl)Cl)cc2)nc(C)n1` (tested in a mixture with another compound), for which, under setting [8], the survivor count is on record as 8 of 10.
In the case of `Cc1cc(NCCCN(C)C)c2ccc3c(ccc4c(NCCCN(C)C)cc(C)nc43)c2n1`, the survivor count (dose: 6.25 mg/kg/injection, vehicle: saline) is 7 of 10; the survivor count (dose: 12.5 mg/kg/injection, vehicle: saline) is listed as 0 of 10; the survivor count (dose: 25.0 mg/kg/injection, vehicle: saline) was 0 of 10; the survivor count (dose: 50.0 mg/kg/injection, vehicle: saline) was 0 of 10; the survivor count (dose: 100.0 mg/kg/injection, vehicle: saline) is given as 0 of 10.
On to `C=C1C(=O)C2=CC1CCC(=O)C1(C)CCC(OC(C)=O)C(C)(C)C1CC2O` (centres undefined), for which, for the setting “dose: 120.0 mg/kg/injection, vehicle: Klucel (hydroxypropylcellulose) (HPC)”, the survivor count is 4 of 10.
In the case of `CC[PH+](CC)CC[S-].CC[PH+](CC)CC[S-].[Au+].[Au+]`, the survivor count is reported as 3 of 10 under setting [1] and 0 of 10 under setting [2].
Regarding `COc1cccc2c1C(=O)c1c(O)c3c(c(O)c1C2=O)CC(O)(/C(C)=N/NC(=O)CCCCC(=O)N/N=C(\C)C1(O)Cc2c(O)c4c(c(O)c2C(OC2CC(N)C(O)C(C)O2)C1)C(=O)c1c(OC)cccc1C4=O)CC3OC1CC(N)C(O)C(C)O1` (centres undefined), the survivor count was 10 of 10 (dose: 12.5 mg/kg/injection, vehicle: water) and 10 of 10 under setting [9].
Consider `CC(C)(C)c1ccc(CN2CCN(C(c3ccccc3)c3ccc(Cl)cc3)CC2)cc1` (centres undefined), for which the survivor count runs as follows: (dose: 128.0 mg/kg/injection, vehicle: Klucel (hydroxypropylcellulose) (HPC)) 8 of 10; (dose: 256.0 mg/kg/injection, vehicle: Klucel (hydroxypropylcellulose) (HPC)) 2 of 9.
For `CCCCNc1ccc2nnc(C)n2n1`, the survivor count (dose: 400.0 mg/kg/injection, vehicle: DMSO) is given as 0 of 10 and the survivor count (dose: 800.0 mg/kg/injection, vehicle: DMSO) is 0 of 10.
As to `CN(C)[C@@H]1C(=O)C(C(N)=O)=C(O)[C@@]2(O)C(=O)C3=C(O)c4c(O)ccc(Cl)c4[C@@](C)(O)[C@H]3C[C@@H]12`, the survivor count (dose: 400.0 mg/kg/injection, vehicle: saline) is 0 of 10.
Regarding `O=C1CN(CCN2CC(=O)N(CN3CCOCC3)C(=O)C2)CC(=O)N1CN1CCOCC1`, the T/C by setting is: under setting [9], 131 % of control; under setting [10], 130 % of control. The survivor count (dose: 200.0 mg/kg/injection, vehicle: water) is 7 of 10 and the survivor count (dose: 400.0 mg/kg/injection, vehicle: water) is 0 of 10.
For `OC(C1CO1)C(O)C1CO1` (centres undefined), where the note is “dose: 4.0 mg/kg/injection, vehicle: saline”, the T/C is 128 % of control. Moreover, the survivor count under setting [3] is on record as 10 of 10.
As for `CCCCCCCCCCCCSC1=C(Cl)C(=O)C(OC)=C(OC)C1=O`, under setting [7], the survivor count is given as 10 of 10.
For the molecule `CC(C)(C)N1CC1CNC(=O)C(=O)NCC1CN1C(C)(C)C` (centres undefined), the survivor count under setting [5] is on record as 10 of 10.
